Source: PubChem BioAssay AID1259308 (NCATS, 2017)
In all, the deposit lists about 59,000 reagents; this is a random part of them. In the full data, about 1,510 (2.6%) are marked active. 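Calls use total luciferase alone and ignore viability, so some active siRNAs may act by altering cell number.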 Reagents against one gene are numbered here. Further read-outs or replicates are left out here. No sequences are given here.

Purpose: 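Knock-downs that increase output of a recombinant reporter protein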 (primary screen)
System: human HEK293 embryonic kidney cells stably expressing firefly luciferase (HEK-CMV-Luc2-Hygro)
Reagents: single siRNA against human genes, 0.8 pmol siRNA per well
Timing: 72 h
Measurement: 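Reporter luminescence and viable-cell signal on separate replicate plates, given as percent of non-targeting control and median/MAD z-scores, plus per-cell luciferase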
Reading the numbers: total luciferase, z-score: higher = more reporter protein produced
Hit rule: 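An siRNA counts as active if its total luciferase robust z-score exceeds 3; genes with two or more such siRNAs out of three were retested with fresh siRNAs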
Calls: active = raised luciferase; inactive = no rise

no.	gene	reagent no.	total luciferase, z-score	call
1	TTC34 (GeneID 100287898)	1	2.14	inactive
2	TTC34 (GeneID 100287898)	2	0.312	inactive
3	TTC34 (GeneID 100287898)	3	-0.0336	inactive
4	TTC34 (GeneID 100287898)	4	0.066	inactive
5	TTC34 (GeneID 100287898)	5	-1.78	inactive
6	TTC34 (GeneID 100287898)	6	0.0234	inactive
7	BPI (GeneID 671)	1	-0.464	inactive
8	BPI (GeneID 671)	2	0.521	inactive
9	BPI (GeneID 671)	3	-0.872	inactive
10	MRPS24 (GeneID 64951)	1	0.836	inactive
11	MRPS24 (GeneID 64951)	2	-0.728	inactive
12	MRPS24 (GeneID 64951)	3	-0.196	inactive
13	COL9A2 (GeneID 1298)	1	3.26	active
14	COL9A2 (GeneID 1298)	2	0.872	inactive
15	COL9A2 (GeneID 1298)	3	0.777	inactive
16	OR2T1 (GeneID 26696)	1	-0.382	inactive
17	OR2T1 (GeneID 26696)	2	0.43	inactive
18	OR2T1 (GeneID 26696)	3	2.48	inactive
19	SCNN1G (GeneID 6340)	1	0.77	inactive
20	SCNN1G (GeneID 6340)	2	-1.42	inactive
21	SCNN1G (GeneID 6340)	3	-1.56	inactive
22	TMEM167B (GeneID 56900)	1	0.547	inactive
23	TMEM167B (GeneID 56900)	2	-1.14	inactive
24	TMEM167B (GeneID 56900)	3	1.53	inactive
25	RGMB-AS1 (GeneID 503569)	1	0.605	inactive
26	RGMB-AS1 (GeneID 503569)	2	0.591	inactive
27	RGMB-AS1 (GeneID 503569)	3	-1.07	inactive
28	TNFRSF9 (GeneID 3604)	1	-0.688	inactive
29	TNFRSF9 (GeneID 3604)	2	-1.39	inactive
30	TNFRSF9 (GeneID 3604)	3	1.05	inactive
31	CROCCP3 (GeneID 114819)	1	-2.51	inactive
32	CROCCP3 (GeneID 114819)	2	0.222	inactive
33	CROCCP3 (GeneID 114819)	3	1.6	inactive
34	NELFCD (GeneID 51497)	1	2.21	inactive
35	NELFCD (GeneID 51497)	2	1.89	inactive
36	NELFCD (GeneID 51497)	3	1.9	inactive
37	SLC16A4 (GeneID 9122)	1	-1.48	inactive
38	SLC16A4 (GeneID 9122)	2	0.392	inactive
39	SLC16A4 (GeneID 9122)	3	-0.507	inactive

Reprinted from the entries so far, 6 entries:
no.	gene	reagent no.	total luciferase, z-score	call
19	SCNN1G (GeneID 6340)	1	0.77	inactive
20	SCNN1G (GeneID 6340)	2	-1.42	inactive
21	SCNN1G (GeneID 6340)	3	-1.56	inactive
22	TMEM167B (GeneID 56900)	1	0.547	inactive
23	TMEM167B (GeneID 56900)	2	-1.14	inactive
24	TMEM167B (GeneID 56900)	3	1.53	inactive
